Data taken from patent US20110229981A1.
Results are given in words; binding and its absence hold for the method and conditions named. Some entries that bind do so weakly or less than the wild type.

By UniProt entry, the sequences of proteins in these tests, tags left out. Where a name states a change or a piece, a line headed by the entry shows the natural chain unless it says otherwise. Residues count along the entry.
UniProt Q9HCN6: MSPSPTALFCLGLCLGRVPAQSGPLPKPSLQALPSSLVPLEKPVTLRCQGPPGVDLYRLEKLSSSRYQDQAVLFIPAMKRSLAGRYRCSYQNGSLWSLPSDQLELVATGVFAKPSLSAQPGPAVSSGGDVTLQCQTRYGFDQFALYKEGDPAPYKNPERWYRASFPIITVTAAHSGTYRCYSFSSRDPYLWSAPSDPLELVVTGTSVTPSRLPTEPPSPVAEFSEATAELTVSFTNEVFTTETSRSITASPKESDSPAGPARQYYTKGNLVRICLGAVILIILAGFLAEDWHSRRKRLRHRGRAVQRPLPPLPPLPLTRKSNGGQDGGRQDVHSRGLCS
recombinant GPVI dimers: residues 21-269 of Q9HCN6
shed GPVI (soluble GPVI in plasma): residues 21-267 of Q9HCN6

Tests used:
[1] = molecular target: shed GPVI (soluble GPVI in plasma) (human) (UniProt Q9HCN6); test: cytometric bead assay, antibody-coupled bead captures, fluorescent convulxin detects
[2] = molecular target: recombinant GPVI monomers (UniProt Q9HCN6); test: cytometric bead assay, anti-GPVI bead (3j24.2 or 9O12.2) captures, fluorescent convulxin detects
[3] = molecular target: recombinant GPVI dimers (UniProt Q9HCN6); test: as above

Measured: binding

B1: convulxin, fluorescently labeled (ligand)
chain 1: GLHCPSDWYYYDQHCYRIFNEEMNWEDAEWFCTKQAKGAHLVSIKSAKEADFVAWMVTQNIEESFSHVSIGLRVQNKEKQCSTKWSDGSSVSYDNLLDLYITKCSLLKKETGFRKWFVASCIGKIPFVCKFPPQC
chain 2: GFCCPSHWSSYDRYCYKVFKQEMTWADAEKFCTQQHTGSHLVSFHSTEEVDFVVKMTHQSLKSTFFWIGANNIWNKCNWQWSDGTKPEYKEWHEEFECLISRTFDNQWLSAPCSDTYSFVCKFEA
modifications: fluorescent label, site not stated
binds: all assays above
